# Experimental data taken from patent US9580398B2, “Compounds, compositions, and methods for modulating ferroptosis and treating excitotoxic disorders” (The Trustees of Columbia University in the City of New York, priority 2012, dated 2017).
# “Also recorded” adds a separate entry of the source. At least one compound was matched to its structure with a doubt left.
# How the values were obtained:
# [1] = test system: HT-1080 cells; assay: Erastin-induced death in HT-1080 cells with co-treated inhibitors (viability, microscopy); format: cell-based, human
# Method: Cell viability was typically assessed in 384-well format by Alamar Blue (Invitrogen) fluorescence (ex/em 530/590) measured on a Victor3 platereader (Perkin Elmer, Waltham, Mass.). In some experiments, Trypan Blue dye exclusion counting was performed using an automated cell counter (ViCell, Beckman-Coulter Inc., Brea, Calif.). Cell viability in test conditions is reported as a percentage relative to the negative control treatment.
# Phase contrast images were acquired using an AMG EVOS FL (Advanced Microscopy Group) microscope equipped with a 10× phase-contrast objective. Three independent fields were acquired for each experimental condition. Representative samples from one field of view are shown.
# [2] = test system: ROS production in HT-1080 cells; assay: Analysis of reactive oxygen species production by flow cytometry (H2DCFDA, C11-BODIPY, MitoSOX); format: cell-based, human; details: erastin 10 μM
# [3] = test system: Jurkat T lymphocytes; details: erastin 1 μM, 25 min, data of Ramanathan and Schreiber, 2009; cited from earlier work
SMILES,effect of co-treatment on erastin-induced death [1],effect on erastin-induced ROS accumulation [2],levels of system L substrates [3]
"CC(=O)N(O)CCCCCNC(=O)CCC(=O)N(O)CCCCCNC(=O)CCC(=O)N(O)CCCCCN [DFO, deferoxamine]",suppressed,suppressed; also recorded: prevented the accumulation of H2DCFDA-sensitive ROS,
CCOc1ccccc1-n1c(C(C)N2CCN(C(=O)COc3ccc(Cl)cc3)CC2)nc2ccccc2c1=O (stereo not drawn) [erastin],,,highly significant decreases
